Protein sequences, listed by entry. Tags and fused reporters are not part of them. Residues count along the entry.
UniProt P25445, residues 26-335: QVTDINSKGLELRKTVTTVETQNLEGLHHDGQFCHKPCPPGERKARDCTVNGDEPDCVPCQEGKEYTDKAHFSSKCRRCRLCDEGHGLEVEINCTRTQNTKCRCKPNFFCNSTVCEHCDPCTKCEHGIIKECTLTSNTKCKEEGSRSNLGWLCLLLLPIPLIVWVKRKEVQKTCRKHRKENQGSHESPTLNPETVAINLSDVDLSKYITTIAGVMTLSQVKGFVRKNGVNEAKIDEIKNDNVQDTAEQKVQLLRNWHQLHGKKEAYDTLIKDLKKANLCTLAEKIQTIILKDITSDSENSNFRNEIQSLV

According to PMC10933653:

Target: T1, PIR (bait of the immunoprecipitation and mass spectrometry screen) (UniProt O00625)
T1 sequence: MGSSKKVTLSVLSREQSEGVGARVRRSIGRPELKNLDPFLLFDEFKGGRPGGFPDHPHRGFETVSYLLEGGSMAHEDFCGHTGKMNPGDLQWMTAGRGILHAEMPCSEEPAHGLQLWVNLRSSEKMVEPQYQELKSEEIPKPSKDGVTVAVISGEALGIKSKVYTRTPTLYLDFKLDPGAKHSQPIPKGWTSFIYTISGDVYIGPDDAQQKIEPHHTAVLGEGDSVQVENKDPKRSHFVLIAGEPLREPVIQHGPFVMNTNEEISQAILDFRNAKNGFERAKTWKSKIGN
Test: affinity purification with mass spectrometry; previous screening: immunoprecipitation of PIR followed by mass spectrometry; cells not given

FAS (hit of the immunoprecipitation and mass spectrometry screen) (from UniProt P25445 26-335) (receptor)
binding: binds

These are yes or no findings as the source states them, for the method shown. Binding seen in cells or lysates may run through a third protein. These calls come from enrichment with a bait or labelling near it, and not all partners need be listed.
